Test results reported in PubChem BioAssay AID493014 (National Center for Advancing Translational Sciences (NCATS), 2011).
The list shows a part of the results. Shown are side measurements of this screen, not its main read-out; they come without a call. Compounds called inactive in the main read-out are mostly missing here. The note in brackets gives the kind of curve behind each potency; many fits are weak.

Assay: qHTS Assay to Find Inhibitors of Chronic Active B-Cell Receptor Signaling
Conditions: ABC-DLBCL IkBa-CBG/CBR reporter, luminescence ratio (green luciferase fused to IkBa over red control in TMD8 lymphoma cells), 4 h
Method in brief: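 Compounds up to 46 uM were incubated four hours with TMD8 cells whose green CBG68 luciferase is fused to IkappaBalpha; red CBR luminescence normalised the signal, and concentration-effect curves were fitted to fusion, red and ratio data.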

[1] = measured here: CBR red luminescence, cell number
[2] = measured here: IkBa-CBG green luminescence

| Compound | AC50 [1] | AC50 [2] |
| --- | --- | --- |
| Cc1ccc(C23CC4CC(CC(CN)(C4)C2)C3)cc1 | 17.8 µM [falling, single point] |  |
| Cc1cc(C)c(N=Cc2c(O)n(-c3nccs3)c(=O)c3ccccc23)c(C)c1 |  | 20.6 µM [rising, partial curve, poor fit] |
| O=C(NC1CCN(C(=S)Nc2ccc(Cl)cc2)CC1)c1ccco1 | 22.4 µM [rising, partial curve, poor fit] |  |
| O=[N+]([O-])c1ccc(-c2nc(C(Cl)Cl)c3ccccc3n2)cc1 | 0.708 µM [rising, full curve, poor fit] |  |
| O=C(CN1C(=O)NC2(CCCC2)C1=O)NNC(=O)c1ccccc1F | 18.4 µM [rising, partial curve, poor fit] |  |
| CN(CC(=O)Nc1ccc(F)cc1)C(=O)c1cccc(S(=O)(=O)N2CCN(c3ccccc3)CC2)c1 | 15.8 µM [falling, single point] |  |
| CCOC(=O)c1c(-c2ccc(C)o2)csc1NC(=S)NC(=O)N(C)C | 35.5 µM [rising, single point] |  |
| NC(=O)c1ccc(NC(=O)CSc2nc3ccccc3c(=O)n2CCCN2CCOCC2)cc1 | 20.6 µM [rising, partial curve, poor fit] |  |
| Cc1ccc(C(=O)Nc2cccc(C(F)(F)F)c2)cc1NC(=O)c1ccno1 | 0.224 µM [falling, full curve, poor fit] |  |
| CCC(=O)Oc1ccc(C(=O)Nc2ccc3c(c2)OCO3)cc1 | 5.01 µM [falling, partial curve] |  |
| COC(=O)c1ccc(Nc2ncnc3sccc23)cc1 | 2.82 µM [rising, partial curve, poor fit] |  |
| O=C(Nc1sc2c(c1C(=O)O)CCC2)c1ccco1 | 5.8 µM [falling, partial curve] |  |
| Cc1noc(C)c1COc1ccccc1C(=O)NCCOc1ccccc1 | 23.1 µM [rising, single point] |  |
| CCOC(=O)C(C)(C)N(Cc1ccc(Cl)cc1)S(=O)(=O)c1ccc(Cl)c([N+](=O)[O-])c1 | 23.1 µM [falling, partial curve, poor fit] |  |
| N#Cc1cn(-c2cccc(C(F)(F)F)c2)c(=O)[nH]c1=O | 11.2 µM [rising, partial curve] |  |
| CCc1ccc(N2C(=O)CN(CC(=O)OC)C2=S)cc1 | 0.316 µM [rising, full curve, poor fit] |  |
| CCc1cccc(NC(=O)Cn2c3[n+](c4ccc(C(F)(F)F)cc42)CCCCC3)c1 | 2.91 µM [rising, single point] |  |
| COc1ccc(NC(=O)/C(=C\c2ccc(F)cc2)NC(=O)c2ccco2)cc1 | 3.55 µM [falling, partial curve, poor fit] |  |
| COc1ccccc1-c1cc(C(F)(F)F)nc(N2CCCCC2)n1 | 23.1 µM [rising, single point] |  |
| COc1cc(C(C)=O)ccc1OCC(O)CN1CCN(S(=O)(=O)c2ccccc2)CC1 (configuration not stated) | 0.0206 µM [rising, full curve, poor fit] |  |

| Compound | AC50 [1] | AC50 [2] |
| --- | --- | --- |
| CC1=NC(C(F)(F)F)(C(F)(F)F)C2=C(CC(C)(C)CC2=O)N1Cc1ccco1 | 13 µM [falling, partial curve, poor fit] |  |
| CNc1ccc(C(=O)OCC(=O)Nc2ccnn2C(C)C)cc1[N+](=O)[O-] | 9.2 µM [rising, partial curve, poor fit] |  |
| Cc1ccc2nc(-c3ccc(NC(=O)CSCC(=O)O)cc3)sc2c1 | 15.8 µM [falling, single point] |  |
| O=c1[nH]n(Cc2ccccc2)c(=O)c2ccccc12 | 2 µM [rising, full curve, poor fit] |  |
| Cc1ccc(N2C(=O)CSCC2=O)cc1 | 7.31 µM [rising, partial curve, poor fit] |  |
| Cc1cc(C)n(-c2ccc(C(=O)Nc3ccccn3)cc2)n1 | 12.6 µM [falling, partial curve, poor fit] |  |
| Cc1nnc(NC(=O)c2ccc3nccnc3c2)s1 | 18.4 µM [falling, partial curve] |  |
| CCOc1ccc(CC(=NCCc2ccccc2)C2=C(O)CC(C)(C)CC2=O)cc1OCC | 8.2 µM [rising, partial curve] |  |
| CC(=O)Nc1ccc(S(=O)(=O)N(C)c2ccc(OCCOc3ccccc3F)cc2)cc1 | 8.2 µM [rising, partial curve] |  |
| Cc1cccc(NS(=O)(=O)c2ccc(C)c(C(=O)NCC(c3ccccc3)N(C)C)c2)c1 (configuration not stated) | 25.9 µM [falling, partial curve, poor fit] |  |
| Cc1ccccc1C(=O)N1CCN(c2ccc(NC(=S)NC(=O)c3cccs3)cc2)CC1 | 1.26 µM [falling, full curve, poor fit] |  |
| Nc1ncn([C@@H]2O[C@H](CO)[C@@H](O)[C@H]2O)c(=O)n1 | 6.51 µM [rising, full curve] |  |
| O=c1oc2ccccc2cc1-c1nc(-c2ccccc2)no1 | 2.82 µM [falling, partial curve] |  |
| N#CC(c1ccccc1)c1ccc(C(=O)c2ccc(F)cc2)cc1 (configuration not stated) | 14.6 µM [rising, single point] |  |
| CC[n+]1c(/C=C2\Sc3ccccc3N2C)ccc2cccc(C)c21 | 17.8 µM [falling, partial curve, poor fit] | 35.5 µM [rising, single point] |
| CN(C)CCCNc1ccc(-c2n[nH]c(=O)c3ccccc23)cc1[N+](=O)[O-] | 14.1 µM [falling, single point] |  |
| CCC(=O)Nc1ccc(Br)c(Cl)c1 | 20.6 µM [rising, single point] |  |
| COc1ccc(C(C(=O)NC2CCCC2)N(C(=O)c2ccoc2C)c2ccc(C)cc2)cc1 (configuration not stated) | 18.4 µM [falling, single point] |  |
| CCC(Sc1ncnc2sc(C)c(C)c12)C(=O)OC (configuration not stated) | 7.31 µM [rising, partial curve, poor fit] |  |
| CSc1cccc(NC(=O)CSc2ncccc2C(=O)Oc2cccc([N+](=O)[O-])c2)c1 | 9.2 µM [falling, single point] | 32.6 µM [rising, partial curve, poor fit] |

3 compounds from above, sorted by molar mass, falling:

| Compound | AC50 [1] | AC50 [2] |
| --- | --- | --- |
| CN(CC(=O)Nc1ccc(F)cc1)C(=O)c1cccc(S(=O)(=O)N2CCN(c3ccccc3)CC2)c1 | 15.8 µM [falling, single point] |  |
| CCOc1ccc(CC(=NCCc2ccccc2)C2=C(O)CC(C)(C)CC2=O)cc1OCC | 8.2 µM [rising, partial curve] |  |
| COc1cc(C(C)=O)ccc1OCC(O)CN1CCN(S(=O)(=O)c2ccccc2)CC1 (configuration not stated) | 0.0206 µM [rising, full curve, poor fit] |  |
